Laboratory results as given in patent publication US6344231B1, “Yeast extract composition, yeast for obtaining the same, and process for producing yeast extract composition” (Nihon Tobacco Inc., priority 1997, dated 2002).
At least one structure is not confirmed: it was looked up by name or label, or the drawing left a doubt.

What was measured:
Candida utilis AHR3C-2 = test: Resistance to aspartate hydroxamate (growth on medium containing aspartate hydroxamate); type: cell-based
Candida utilis IFO 0626 = test: as above; type: cell-based
[1] = aspartate hydroxamate concentration 50 μg/ml
[2] = aspartate hydroxamate concentration 100 μg/ml
[3] = aspartate hydroxamate concentration 250 μg/ml
[4] = aspartate hydroxamate concentration 500 μg/ml
[5] = aspartate hydroxamate concentration 1000 μg/ml

Measured: Resistance to aspartate hydroxamate

N[C@@H](CC(=O)NO)C(=O)O [Aspartate hydroxamate, aspartate hydroxamate]
−: Candida utilis IFO 0626; [5]
±: Candida utilis IFO 0626; [4]
+: Candida utilis AHR3C-2; [1] | Candida utilis AHR3C-2; [2] | Candida utilis AHR3C-2; [3] | Candida utilis AHR3C-2; [4] | Candida utilis AHR3C-2; [5] | Candida utilis IFO 0626; [1] | Candida utilis IFO 0626; [2] | Candida utilis IFO 0626; [3]
